Results deposited as PubChem BioAssay AID1259424 (University of Nebraska Medical Center, 2018).
Test: 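Seek colon cancer survival genes behaving like KSR1, using a six-gene signature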 (primary screen). Cells: human HCT116 colon cancer cells. Reagent: siRNA pool against human genes, 50 nM. Read-out: 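Log2 levels of six mRNAs (branched-DNA multiplex), adjusted by two reference genes and the non-targeting median, then scored against the average KSR1 knockdown pattern as Pearson r and euclidean distance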. Scale: mean correlation with KSR1 profile and KSR1 correlation: higher = expression change more like KSR1 knockdown; mean distance from KSR1 profile: higher = expression change less like KSR1 knockdown.
Here is one part, drawn at random, of about 14,000 deposited reagents. 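Higher correlation or smaller distance means closer resemblance to KSR1 loss; control wells, including KSR1 knockdowns, recur on many plates.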 Reagents against one gene are numbered here. Reagent sequences are not shown. The record does not give: the time to read-out.

| gene | pool no. | mean correlation with KSR1 profile | mean distance from KSR1 profile | KSR1 correlation, replicate 1 | KSR1 correlation, replicate 2 | KSR1 correlation, replicate 3 |
| --- | --- | --- | --- | --- | --- | --- |
| SLC9A2 | 1 | -0.452 | 1.77 | -0.377 | -0.45 | -0.326 |
| PCDHB5 (protocadherin beta 5) | 1 | 0.66 | 1.08 | 0.679 | 0.555 | 0.475 |
| NOX5 (NADPH oxidase 5) | 1 | 0.545 | 0.892 | 0.501 | 0.553 | 0.606 |
| ZNF512B (zinc finger protein 512B) | 1 | 0.42 | 3.74 | 0.223 | 0.482 | 0.507 |
| BEX4 (brain expressed X-linked 4) | 1 | 0.323 | 4.1 | 0.636 | 0.213 | 0.0121 |
| FRAT2 (FRAT regulator of Wnt signaling pathway 2) | 1 | 0.168 | 1.38 | 0.141 | -0.0904 | 0.0548 |
| SCAF4 (SR-related CTD associated factor 4) | 1 | -0.346 | 1.98 | -0.422 | -0.205 | -0.224 |
| RIC1 (RIC1 partner of RAB6A GEF complex) | 1 | -0.557 | 1.69 | -0.511 | -0.332 | -0.456 |
| STK24 (serine/threonine kinase 24) | 1 | 0.501 | 1.44 | 0.724 | 0.584 | -0.116 |
| SERINC1 (serine incorporator 1) | 1 | -0.762 | 2.57 | -0.745 | -0.733 | -0.625 |
| ADGRE3 (adhesion G protein-coupled receptor E3) | 1 | 0.559 | 1.75 | 0.509 | 0.588 | 0.472 |
| MRPL3 (mitochondrial ribosomal protein L3) | 1 | 0.363 | 1.38 | 0.478 | 0.064 | 0.463 |
| PFDN1 (prefoldin subunit 1) | 1 | 0.373 | 3.13 | 0.454 | 0.464 | 0.384 |
| COX7A2P2 (cytochrome c oxidase subunit 7A2 pseudogene 2) | 1 | -0.335 | 1.99 | -0.301 | -0.316 | -0.678 |
| CIT (citron rho-interacting serine/threonine kinase) | 1 | 0.716 | 1.68 | 0.766 | 0.688 | 0.46 |
| ABAT (4-aminobutyrate aminotransferase) | 1 | -0.245 | 3.56 | -0.0999 | -0.293 | -0.102 |
| CCPG1 (cell cycle progression 1) | 1 | -0.333 | 1.82 | -0.127 | -0.456 | -0.567 |
| PRKRA | 1 | -0.199 | 1.97 | -0.127 | 0.0648 | -0.456 |
| HEXA (hexosaminidase subunit alpha) | 1 | -0.0277 | 2.69 | 0.15 | -0.271 | -0.0469 |
| LCOR (ligand dependent nuclear receptor corepressor) | 1 | -0.419 | 3.09 | -0.346 | -0.498 | -0.511 |
| LCOR (ligand dependent nuclear receptor corepressor) | 2 | 0.567 | 2.92 | 0.543 | 0.739 | 0.336 |
| POLR2G (RNA polymerase II subunit G) | 1 | -0.179 | 4.52 | -0.214 | -0.141 | -0.355 |
| SUSD5 (sushi domain containing 5) | 1 | -0.325 | 2.4 | -0.149 | -0.433 | -0.505 |
| CYP11B1 (cytochrome P450 family 11 subfamily B member 1) | 1 | -0.103 | 3.21 | -0.19 | -0.0683 | 0.0408 |
| ADH1A (alcohol dehydrogenase 1A (class I), alpha polypeptide) | 1 | 0.0787 | 1.64 | 0.18 | -0.00515 | -0.104 |
| MXD3 (MAX dimerization protein 3) | 1 | 0.471 | 1.99 | 0.383 | 0.499 | 0.445 |
| CHRDL2 (chordin like 2) | 1 | 0.0429 | 1.28 | 0.356 | -0.241 | -0.167 |
| WFDC2 (WAP four-disulfide core domain 2) | 1 | -0.223 | 2.19 | -0.33 | -0.201 | -0.232 |
| EIF1B (eukaryotic translation initiation factor 1B) | 1 | -0.169 | 1.68 | -0.206 | -0.33 | 0.0349 |
| PAF1 (PAF1 component of Paf1/RNA polymerase II complex) | 1 | -0.702 | 2.91 | -0.83 | -0.409 | -0.697 |
| IGFBP4 (insulin like growth factor binding protein 4) | 1 | -0.278 | 1.75 | 0.0744 | -0.107 | -0.558 |
| PDZRN4 (PDZ domain containing ring finger 4) | 1 | -0.865 | 1.7 | -0.726 | -0.893 | -0.871 |
| YPEL5 (yippee like 5) | 1 | -0.776 | 4.26 | -0.754 | -0.639 | -0.695 |
| OPCML (opioid binding protein/cell adhesion molecule like) | 1 | 0.412 | 1.19 | 0.374 | 0.37 | 0.331 |
| WNT9B (Wnt family member 9B) | 1 | -0.43 | 1.51 | -0.595 | -0.185 | -0.452 |
| COA4 (cytochrome c oxidase assembly factor 4 homolog) | 1 | -0.468 | 1.87 | -0.291 | -0.523 | -0.142 |
| WDR5 (WD repeat domain 5) | 1 | -0.123 | 2.87 | -0.0659 | -0.127 | 0.123 |
| SNTB1 (syntrophin beta 1) | 1 | 0.465 | 2.96 | 0.422 | 0.394 | 0.582 |
| ATG3 (autophagy related 3) | 1 | -0.116 | 1.66 | -0.0443 | -0.285 | -0.268 |
| MAPK15 (mitogen-activated protein kinase 15) | 1 | -0.0149 | 1.95 | 0.108 | -0.157 | -0.345 |
| RBM7 (RNA binding motif protein 7) | 1 | 0.555 | 2.59 | 0.553 | 0.634 | 0.494 |
| ESS2 (ess-2 spliceosome associated protein) | 1 | 0.38 | 3.89 | 0.589 | 0.21 | 0.415 |
| ODF1 (outer dense fiber of sperm tails 1) | 1 | 0.357 | 1.33 | 0.674 | 0.597 | 0.105 |
| TNC (tenascin C) | 1 | 0.514 | 2.77 | 0.573 | 0.544 | 0.594 |
| CX3CR1 (C-X3-C motif chemokine receptor 1) | 1 | 0.712 | 2.15 | 0.812 | 0.649 | 0.521 |
| TMED1 (transmembrane p24 trafficking protein 1) | 1 | -0.367 | 1.37 | 0.108 | -0.0688 | -0.499 |
| LAS1L (LAS1 like ribosome biogenesis factor) | 1 | 0.206 | 2.6 | 0.0869 | 0.174 | 0.111 |
| LAGE3 (L antigen family member 3) | 1 | -0.0341 | 2.55 | -0.0187 | -0.0693 | -0.0646 |
| PLVAP (plasmalemma vesicle associated protein) | 1 | 0.628 | 2.73 | 0.404 | 0.68 | 0.816 |
| RPL32 (ribosomal protein L32) | 1 | 0.097 | 1.47 | 0.165 | -0.0474 | 0.638 |

Targets above whose target name starts with E or e (2):
| gene | pool no. | mean correlation with KSR1 profile | mean distance from KSR1 profile | KSR1 correlation, replicate 1 | KSR1 correlation, replicate 2 | KSR1 correlation, replicate 3 |
| --- | --- | --- | --- | --- | --- | --- |
| EIF1B (eukaryotic translation initiation factor 1B) | 1 | -0.169 | 1.68 | -0.206 | -0.33 | 0.0349 |
| ESS2 (ess-2 spliceosome associated protein) | 1 | 0.38 | 3.89 | 0.589 | 0.21 | 0.415 |
